Experimental data from PMC8566587, “Selection for constrained peptides that bind to a single target protein” (Nature Communications, 2021).
These are yes or no findings as the source states them, for the method shown.

The chains behind the UniProt entries cited, without tags or fusion partners. Residues count along the entry.
UniProt Q00987, residues 17-124: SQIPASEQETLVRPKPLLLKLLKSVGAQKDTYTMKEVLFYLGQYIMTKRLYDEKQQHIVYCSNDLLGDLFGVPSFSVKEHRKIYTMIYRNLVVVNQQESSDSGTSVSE
UniProt Q9BYF1, residues 19-56: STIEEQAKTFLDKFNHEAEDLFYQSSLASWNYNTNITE

Target: residues 17-124 of Mdm2 (Mdm2*) fused to σ^N-Npu^N (UniProt Q00987)
Assay: two-hybrid

## peptide based on the N-terminal residues 19-56 of ACE2 (ACE2α1) fused to Npu^C-σ^C (from UniProt Q9BYF1 19-56)
  binding: no binding
